From patent publication US20050112121A1 (YALE UNIVERSITY, published 2005)
Results are given in words; binding and its absence hold for the method and conditions named. Some results given as binding are weak or reduced against the parent protein; the word gives no strength.

By UniProt entry, the sequences of proteins in these tests, tags left out. Residues count along the entry.
UniProt P07207, residues 53-2703: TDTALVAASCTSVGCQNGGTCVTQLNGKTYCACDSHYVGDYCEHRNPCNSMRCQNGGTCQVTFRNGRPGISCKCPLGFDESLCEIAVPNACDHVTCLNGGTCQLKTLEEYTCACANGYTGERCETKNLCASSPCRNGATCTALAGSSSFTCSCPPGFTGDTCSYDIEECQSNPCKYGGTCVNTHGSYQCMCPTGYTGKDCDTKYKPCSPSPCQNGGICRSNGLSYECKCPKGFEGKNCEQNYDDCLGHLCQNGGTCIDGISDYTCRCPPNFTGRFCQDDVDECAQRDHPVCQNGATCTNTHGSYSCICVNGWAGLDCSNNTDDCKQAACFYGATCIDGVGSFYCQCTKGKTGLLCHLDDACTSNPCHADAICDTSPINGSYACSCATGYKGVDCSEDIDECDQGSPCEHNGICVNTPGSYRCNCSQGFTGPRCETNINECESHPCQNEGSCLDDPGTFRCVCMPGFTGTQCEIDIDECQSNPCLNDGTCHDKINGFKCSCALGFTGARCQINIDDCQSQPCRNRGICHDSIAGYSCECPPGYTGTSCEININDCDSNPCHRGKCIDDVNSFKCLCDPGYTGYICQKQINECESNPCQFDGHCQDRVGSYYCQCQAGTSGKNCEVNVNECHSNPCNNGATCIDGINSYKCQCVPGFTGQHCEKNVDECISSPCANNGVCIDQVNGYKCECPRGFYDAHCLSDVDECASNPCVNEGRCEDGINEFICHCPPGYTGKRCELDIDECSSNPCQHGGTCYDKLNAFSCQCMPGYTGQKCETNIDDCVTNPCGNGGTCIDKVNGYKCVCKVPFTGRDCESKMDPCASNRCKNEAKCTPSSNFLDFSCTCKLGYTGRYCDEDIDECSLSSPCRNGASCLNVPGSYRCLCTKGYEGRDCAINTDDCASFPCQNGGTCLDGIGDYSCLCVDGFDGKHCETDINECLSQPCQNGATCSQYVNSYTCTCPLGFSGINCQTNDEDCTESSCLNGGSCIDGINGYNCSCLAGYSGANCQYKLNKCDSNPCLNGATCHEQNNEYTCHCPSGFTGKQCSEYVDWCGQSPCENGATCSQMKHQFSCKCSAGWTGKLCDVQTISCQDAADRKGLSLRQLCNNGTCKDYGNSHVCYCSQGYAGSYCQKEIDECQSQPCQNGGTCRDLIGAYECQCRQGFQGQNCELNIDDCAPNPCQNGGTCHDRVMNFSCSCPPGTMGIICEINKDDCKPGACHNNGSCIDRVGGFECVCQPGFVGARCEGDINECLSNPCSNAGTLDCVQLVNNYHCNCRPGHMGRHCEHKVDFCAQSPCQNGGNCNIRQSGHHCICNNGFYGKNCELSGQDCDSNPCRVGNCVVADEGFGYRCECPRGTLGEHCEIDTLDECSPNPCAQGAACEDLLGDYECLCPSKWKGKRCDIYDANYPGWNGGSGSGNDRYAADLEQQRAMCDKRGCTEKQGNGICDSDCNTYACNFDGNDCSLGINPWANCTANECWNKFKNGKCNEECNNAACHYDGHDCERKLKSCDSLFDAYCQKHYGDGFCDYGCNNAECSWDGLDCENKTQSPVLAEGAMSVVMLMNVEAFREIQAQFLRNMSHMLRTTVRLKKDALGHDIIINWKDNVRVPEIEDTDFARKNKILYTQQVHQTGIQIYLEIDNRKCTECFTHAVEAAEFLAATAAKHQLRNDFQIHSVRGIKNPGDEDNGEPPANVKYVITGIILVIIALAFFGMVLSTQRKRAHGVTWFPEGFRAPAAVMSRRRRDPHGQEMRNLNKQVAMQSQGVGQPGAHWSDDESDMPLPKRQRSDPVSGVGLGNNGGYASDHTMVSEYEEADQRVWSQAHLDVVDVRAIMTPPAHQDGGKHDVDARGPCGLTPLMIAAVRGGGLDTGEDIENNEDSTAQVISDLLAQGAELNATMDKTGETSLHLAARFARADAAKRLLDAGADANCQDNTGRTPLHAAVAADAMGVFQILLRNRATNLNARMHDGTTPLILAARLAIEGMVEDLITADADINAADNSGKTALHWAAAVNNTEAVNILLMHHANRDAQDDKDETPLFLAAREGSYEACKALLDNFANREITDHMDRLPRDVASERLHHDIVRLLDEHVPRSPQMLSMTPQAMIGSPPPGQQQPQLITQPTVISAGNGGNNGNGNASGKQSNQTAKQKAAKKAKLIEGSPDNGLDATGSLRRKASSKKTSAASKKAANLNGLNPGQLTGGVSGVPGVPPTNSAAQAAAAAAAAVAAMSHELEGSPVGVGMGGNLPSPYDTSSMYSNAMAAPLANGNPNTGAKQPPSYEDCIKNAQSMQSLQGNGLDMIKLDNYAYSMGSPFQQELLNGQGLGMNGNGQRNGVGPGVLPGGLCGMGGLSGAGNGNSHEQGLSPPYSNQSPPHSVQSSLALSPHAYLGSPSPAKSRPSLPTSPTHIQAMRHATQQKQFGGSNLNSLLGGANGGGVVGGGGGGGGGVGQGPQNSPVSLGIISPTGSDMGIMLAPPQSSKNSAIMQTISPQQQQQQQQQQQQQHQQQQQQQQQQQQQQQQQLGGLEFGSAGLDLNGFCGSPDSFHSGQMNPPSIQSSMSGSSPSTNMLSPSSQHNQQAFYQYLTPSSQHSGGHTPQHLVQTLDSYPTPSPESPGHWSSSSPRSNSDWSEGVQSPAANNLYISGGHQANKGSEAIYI

T1: Serrate (Drosophila), expression construct Ser-mtn (Drosophila) (UniProt P18168)
T1 sequence (looked up): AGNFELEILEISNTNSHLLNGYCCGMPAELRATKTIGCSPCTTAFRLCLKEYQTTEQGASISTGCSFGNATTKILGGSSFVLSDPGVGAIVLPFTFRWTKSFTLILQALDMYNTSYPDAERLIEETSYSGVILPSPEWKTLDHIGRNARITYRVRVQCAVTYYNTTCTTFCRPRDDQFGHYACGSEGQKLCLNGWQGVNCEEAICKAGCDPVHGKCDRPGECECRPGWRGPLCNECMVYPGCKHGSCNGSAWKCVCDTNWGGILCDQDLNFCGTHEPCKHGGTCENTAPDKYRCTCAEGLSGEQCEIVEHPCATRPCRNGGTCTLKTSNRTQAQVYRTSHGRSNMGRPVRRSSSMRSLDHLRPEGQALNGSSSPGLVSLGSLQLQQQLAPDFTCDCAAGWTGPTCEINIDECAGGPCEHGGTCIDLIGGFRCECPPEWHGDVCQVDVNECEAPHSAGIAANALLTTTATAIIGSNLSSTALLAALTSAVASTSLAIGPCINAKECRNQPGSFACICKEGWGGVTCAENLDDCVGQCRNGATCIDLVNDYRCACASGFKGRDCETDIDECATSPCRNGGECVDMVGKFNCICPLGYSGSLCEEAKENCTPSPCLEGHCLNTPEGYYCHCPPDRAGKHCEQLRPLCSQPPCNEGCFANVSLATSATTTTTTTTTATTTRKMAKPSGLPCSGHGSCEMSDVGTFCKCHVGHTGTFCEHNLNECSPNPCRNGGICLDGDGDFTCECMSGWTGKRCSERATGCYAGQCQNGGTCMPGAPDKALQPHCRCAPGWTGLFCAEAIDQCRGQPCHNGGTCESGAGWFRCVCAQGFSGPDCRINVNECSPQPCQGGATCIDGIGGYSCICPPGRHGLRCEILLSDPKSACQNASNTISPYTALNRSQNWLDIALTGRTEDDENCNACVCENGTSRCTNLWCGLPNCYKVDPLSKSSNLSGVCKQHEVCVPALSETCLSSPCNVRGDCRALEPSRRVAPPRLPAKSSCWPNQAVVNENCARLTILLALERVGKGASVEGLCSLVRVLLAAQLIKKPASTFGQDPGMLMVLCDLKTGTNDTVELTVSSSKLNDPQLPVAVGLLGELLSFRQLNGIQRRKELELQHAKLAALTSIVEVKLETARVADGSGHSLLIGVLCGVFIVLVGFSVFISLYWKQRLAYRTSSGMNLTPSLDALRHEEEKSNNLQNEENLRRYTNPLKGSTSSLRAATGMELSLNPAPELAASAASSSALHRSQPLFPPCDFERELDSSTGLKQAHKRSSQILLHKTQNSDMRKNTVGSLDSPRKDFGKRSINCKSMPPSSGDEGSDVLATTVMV


Key:
[1] = molecular target: T1, Serrate (Drosophila), expression construct Ser-mtn (Drosophila); assay: S2 cell aggregation assay
[2] = molecular target: Notch (Drosophila), full length Notch expression construct #1 pMtNMg (Drosophila) (UniProt P07207); assay: S2 cell aggregation assay

| Molecule | binding [1] | binding [2] |
| --- | --- | --- |
| Notch (Drosophila), full length Notch expression construct #1 pMtNMg (from UniProt P07207 53-2703) (receptor) | binds |  |
| Serrate (Drosophila), expression construct Ser-mtn (ligand, UniProt P18168 83-1407, looked up, whole, on cells) AGNFELEILEISNTNSHLLNGYCCGMPAELRATKTIGCSPCTTAFRLCLKEYQTTEQGASISTGCSFGNATTKILGGSSFVLSDPGVGAIVLPFTFRWTKSFTLILQALDMYNTSYPDAERLIEETSYSGVILPSPEWKTLDHIGRNARITYRVRVQCAVTYYNTTCTTFCRPRDDQFGHYACGSEGQKLCLNGWQGVNCEEAICKAGCDPVHGKCDRPGECECRPGWRGPLCNECMVYPGCKHGSCNGSAWKCVCDTNWGGILCDQDLNFCGTHEPCKHGGTCENTAPDKYRCTCAEGLSGEQCEIVEHPCATRPCRNGGTCTLKTSNRTQAQVYRTSHGRSNMGRPVRRSSSMRSLDHLRPEGQALNGSSSPGLVSLGSLQLQQQLAPDFTCDCAAGWTGPTCEINIDECAGGPCEHGGTCIDLIGGFRCECPPEWHGDVCQVDVNECEAPHSAGIAANALLTTTATAIIGSNLSSTALLAALTSAVASTSLAIGPCINAKECRNQPGSFACICKEGWGGVTCAENLDDCVGQCRNGATCIDLVNDYRCACASGFKGRDCETDIDECATSPCRNGGECVDMVGKFNCICPLGYSGSLCEEAKENCTPSPCLEGHCLNTPEGYYCHCPPDRAGKHCEQLRPLCSQPPCNEGCFANVSLATSATTTTTTTTTATTTRKMAKPSGLPCSGHGSCEMSDVGTFCKCHVGHTGTFCEHNLNECSPNPCRNGGICLDGDGDFTCECMSGWTGKRCSERATGCYAGQCQNGGTCMPGAPDKALQPHCRCAPGWTGLFCAEAIDQCRGQPCHNGGTCESGAGWFRCVCAQGFSGPDCRINVNECSPQPCQGGATCIDGIGGYSCICPPGRHGLRCEILLSDPKSACQNASNTISPYTALNRSQNWLDIALTGRTEDDENCNACVCENGTSRCTNLWCGLPNCYKVDPLSKSSNLSGVCKQHEVCVPALSETCLSSPCNVRGDCRALEPSRRVAPPRLPAKSSCWPNQAVVNENCARLTILLALERVGKGASVEGLCSLVRVLLAAQLIKKPASTFGQDPGMLMVLCDLKTGTNDTVELTVSSSKLNDPQLPVAVGLLGELLSFRQLNGIQRRKELELQHAKLAALTSIVEVKLETARVADGSGHSLLIGVLCGVFIVLVGFSVFISLYWKQRLAYRTSSGMNLTPSLDALRHEEEKSNNLQNEENLRRYTNPLKGSTSSLRAATGMELSLNPAPELAASAASSSALHRSQPLFPPCDFERELDSSTGLKQAHKRSSQILLHKTQNSDMRKNTVGSLDSPRKDFGKRSINCKSMPPSSGDEGSDVLATTVMV |  | binds |
